# Data as given in PubChem BioAssay AID1224827 (NIAID, 2016)
# Assay: 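Retest primary hits on a TNF reporter with six siRNAs per gene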 (follow-up of hits)
# Cell system: RAW264.7 G9 mouse macrophage reporter clone
# Knock-down reagent: single siRNA against mouse genes, 100 nM siRNA
# Timing: siRNA for 2 days, then LPS about 16 h
# Conditions: bacterial lipopolysaccharide (LPS), 10 ng/ml, cells fixed after overnight (about 16 h) stimulation
# Measurement: 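Imaged nuclear TNF reporter intensity, background removed, scaled per plate and to non-targeting control wells, as z-scores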
# Direction: TNF reporter z-score, mean and TNF reporter z-score: higher = stronger Tnf promoter reporter signal; gene median z, three same-vendor siRNAs: higher = stronger Tnf reporter signal for the gene
# Rule for the call: 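An siRNA is called active when its mean z-score over replicates is at least +2 or at most -2; control wells get no call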
# This is an unselected part of about 3,800 reagents tested. About 2,200 of them (57%) count as active. 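Active means a strong reporter change in either direction; calls are per siRNA, not per gene; qiagen siRNAs gave weaker effects.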 A number with no mark means an inactive call. Reagents against one gene are numbered here.
gene symbol,reagent,"TNF reporter z-score, mean","gene median z, three same-vendor siRNAs","TNF reporter z-score, repeat 1","TNF reporter z-score, repeat 2"
Gpr83 (GeneID 14608),1,-3.51 (active),-4.42,-3.05,-3.97
Gpr83 (GeneID 14608),2,-4.45 (active),-4.42,-4.65,-4.25
Gpr83 (GeneID 14608),3,-4.6 (active),-4.42,-4.61,-4.6
Gpr83 (GeneID 14608),4,3.18 (active),-0.0854,4.42,1.94
Gpr83 (GeneID 14608),5,-0.0854,-0.0854,0.25,-0.421
Gpr83 (GeneID 14608),6,-1.14,-0.0854,-1.45,-0.827
Eif3f (GeneID 66085),1,-0.208,-2.22,-1.55,1.14
Eif3f (GeneID 66085),2,-2.13 (active),-2.22,-2.88,-1.38
Eif3f (GeneID 66085),3,-5.17 (active),-2.22,-4.99,-5.35
Eif3f (GeneID 66085),4,-2.45 (active),-3.75,-0.928,-3.97
Eif3f (GeneID 66085),5,-3.36 (active),-3.75,-2.77,-3.95
Eif3f (GeneID 66085),6,-4.17 (active),-3.75,-4.79,-3.55
Fasl (GeneID 14103),1,-3.34 (active),-3.95,-3.44,-3.25
Fasl (GeneID 14103),2,-4 (active),-3.95,-4.19,-3.8
Fasl (GeneID 14103),3,-4.18 (active),-3.95,-4.27,-4.09
Fasl (GeneID 14103),4,5.66 (active),0.555,9.67,1.66
Fasl (GeneID 14103),5,1.45,0.555,3.45,-0.553
Fasl (GeneID 14103),6,-1.71,0.555,-0.698,-2.72
Mtmr3 (GeneID 74302),1,-1.02,-2.6,-0.0202,-2.02
Mtmr3 (GeneID 74302),2,-2.02 (active),-2.6,-0.648,-3.39
Mtmr3 (GeneID 74302),3,-3.26 (active),-2.6,-3.33,-3.19
Mtmr3 (GeneID 74302),4,6.04 (active),0.643,9.77,2.31
Mtmr3 (GeneID 74302),5,1.14,0.643,3.3,-1.03
Mtmr3 (GeneID 74302),6,-2.51 (active),0.643,-2.37,-2.66

Quoted from the listing, 6 entries:
gene symbol,reagent,"TNF reporter z-score, mean","gene median z, three same-vendor siRNAs","TNF reporter z-score, repeat 1","TNF reporter z-score, repeat 2"
Fasl (GeneID 14103),2,-4 (active),-3.95,-4.19,-3.8
Fasl (GeneID 14103),3,-4.18 (active),-3.95,-4.27,-4.09
Fasl (GeneID 14103),4,5.66 (active),0.555,9.67,1.66
Fasl (GeneID 14103),5,1.45,0.555,3.45,-0.553
Fasl (GeneID 14103),6,-1.71,0.555,-0.698,-2.72
Mtmr3 (GeneID 74302),1,-1.02,-2.6,-0.0202,-2.02

More entries:
gene symbol,reagent,"TNF reporter z-score, mean","gene median z, three same-vendor siRNAs","TNF reporter z-score, repeat 1","TNF reporter z-score, repeat 2"
Poglut3 (GeneID 68304),1,-1.73,-2.61,-2.92,-0.528
Poglut3 (GeneID 68304),2,-2.07 (active),-2.61,-2.29,-1.84
Poglut3 (GeneID 68304),3,-4.54 (active),-2.61,-4.61,-4.47
Poglut3 (GeneID 68304),4,1.85,0.902,3.68,0.0122
Poglut3 (GeneID 68304),5,1.49,0.902,2.78,0.203
Poglut3 (GeneID 68304),6,0.891,0.902,1.6,0.182
Lce3c (GeneID 94060),1,5.17 (active),0.013,5.75,4.6
Lce3c (GeneID 94060),2,0.013,0.013,-0.532,0.558
Lce3c (GeneID 94060),3,-0.991,0.013,-0.87,-1.11
Lce3c (GeneID 94060),4,3.79 (active),-0.0253,7.42,0.162
Lce3c (GeneID 94060),5,0.896,-0.0253,2.85,-1.06
Lce3c (GeneID 94060),6,-0.701,-0.0253,-0.212,-1.19
Htra2 (GeneID 64704),1,-0.72,-2.46,-1.15,-0.291
Htra2 (GeneID 64704),2,-2.56 (active),-2.46,-3.22,-1.9
Htra2 (GeneID 64704),3,-3.02 (active),-2.46,-3.01,-3.03
Htra2 (GeneID 64704),4,4.74 (active),0.812,8.91,0.559
Htra2 (GeneID 64704),5,2.69 (active),0.812,4.32,1.07
Htra2 (GeneID 64704),6,-2.16 (active),0.812,-2.66,-1.66
Kash5 (GeneID 384619),1,-0.351,-2.93,-2.21,1.51
Kash5 (GeneID 384619),2,-3.09 (active),-2.93,-1.74,-4.43
Kash5 (GeneID 384619),3,-3.77 (active),-2.93,-3.9,-3.65
Kash5 (GeneID 384619),4,0.0126,-1.62,1.62,-1.59
Kash5 (GeneID 384619),5,-1.19,-1.62,-0.446,-1.92
Kash5 (GeneID 384619),6,-2.54 (active),-1.62,-3.42,-1.65
Cabp7 (GeneID 192650),1,6.12 (active),-3.94,3.04,9.21
Cabp7 (GeneID 192650),2,-4.04 (active),-3.94,-3.92,-4.15
Cabp7 (GeneID 192650),3,-4.48 (active),-3.94,-5,-3.95
Cabp7 (GeneID 192650),4,1.37,-1.14,3.36,-0.618
Cabp7 (GeneID 192650),5,1.01,-1.14,3.69,-1.66
Cabp7 (GeneID 192650),6,-3.49 (active),-1.14,-3.27,-3.71
Fga (GeneID 14161),1,-2.14 (active),-3.42,-1.84,-2.44
Fga (GeneID 14161),2,-3.62 (active),-3.42,-3.99,-3.25
Fga (GeneID 14161),3,-3.66 (active),-3.42,-3.59,-3.73
Fga (GeneID 14161),4,2.44 (active),0.752,4.4,0.476
Fga (GeneID 14161),5,1.13,0.752,2.73,-0.472
Fga (GeneID 14161),6,0.295,0.752,1.03,-0.439
